Results reported in publication PMC11574364.

By UniProt entry, the sequences of proteins in these tests, tags left out. Where a name states a change or a piece, a line headed by the entry shows the natural chain unless it says otherwise.
UniProt Q5T7N2: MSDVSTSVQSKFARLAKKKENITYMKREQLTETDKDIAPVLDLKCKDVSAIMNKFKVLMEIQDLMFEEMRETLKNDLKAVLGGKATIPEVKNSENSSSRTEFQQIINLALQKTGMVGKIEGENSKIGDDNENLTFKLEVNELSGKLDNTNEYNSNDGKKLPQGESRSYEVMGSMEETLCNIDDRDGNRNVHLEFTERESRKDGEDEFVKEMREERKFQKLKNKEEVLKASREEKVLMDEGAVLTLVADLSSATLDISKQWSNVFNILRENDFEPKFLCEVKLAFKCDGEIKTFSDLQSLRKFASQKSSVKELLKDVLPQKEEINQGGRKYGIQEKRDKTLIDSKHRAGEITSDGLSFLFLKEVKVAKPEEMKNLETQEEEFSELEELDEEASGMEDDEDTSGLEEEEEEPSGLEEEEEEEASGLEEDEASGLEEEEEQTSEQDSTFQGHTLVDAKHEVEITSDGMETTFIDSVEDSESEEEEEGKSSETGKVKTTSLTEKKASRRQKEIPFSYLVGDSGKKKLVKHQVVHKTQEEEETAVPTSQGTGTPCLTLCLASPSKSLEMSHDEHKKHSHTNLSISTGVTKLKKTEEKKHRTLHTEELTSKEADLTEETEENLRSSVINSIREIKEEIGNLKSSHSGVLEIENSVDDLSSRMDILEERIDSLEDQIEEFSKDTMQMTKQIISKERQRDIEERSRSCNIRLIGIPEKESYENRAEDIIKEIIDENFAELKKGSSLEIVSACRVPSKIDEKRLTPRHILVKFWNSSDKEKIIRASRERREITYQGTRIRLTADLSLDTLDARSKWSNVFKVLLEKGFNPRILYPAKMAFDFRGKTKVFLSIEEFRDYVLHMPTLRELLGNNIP
UniProt P16581: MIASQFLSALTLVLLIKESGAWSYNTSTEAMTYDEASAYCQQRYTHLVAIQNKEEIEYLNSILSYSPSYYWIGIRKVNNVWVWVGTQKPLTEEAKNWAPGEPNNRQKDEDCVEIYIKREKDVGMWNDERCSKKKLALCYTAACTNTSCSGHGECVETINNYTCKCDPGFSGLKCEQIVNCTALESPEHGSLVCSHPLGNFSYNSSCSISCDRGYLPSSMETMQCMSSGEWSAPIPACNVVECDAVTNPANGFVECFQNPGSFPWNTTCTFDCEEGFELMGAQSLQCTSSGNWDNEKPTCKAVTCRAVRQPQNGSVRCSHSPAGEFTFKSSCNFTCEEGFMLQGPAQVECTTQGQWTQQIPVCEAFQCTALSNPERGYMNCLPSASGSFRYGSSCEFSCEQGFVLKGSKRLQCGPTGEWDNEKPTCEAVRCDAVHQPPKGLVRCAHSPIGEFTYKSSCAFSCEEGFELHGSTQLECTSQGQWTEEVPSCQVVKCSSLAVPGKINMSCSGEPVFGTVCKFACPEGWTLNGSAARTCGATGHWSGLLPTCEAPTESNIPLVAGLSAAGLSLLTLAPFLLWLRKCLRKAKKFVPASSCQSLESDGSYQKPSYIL
UniProt P05997: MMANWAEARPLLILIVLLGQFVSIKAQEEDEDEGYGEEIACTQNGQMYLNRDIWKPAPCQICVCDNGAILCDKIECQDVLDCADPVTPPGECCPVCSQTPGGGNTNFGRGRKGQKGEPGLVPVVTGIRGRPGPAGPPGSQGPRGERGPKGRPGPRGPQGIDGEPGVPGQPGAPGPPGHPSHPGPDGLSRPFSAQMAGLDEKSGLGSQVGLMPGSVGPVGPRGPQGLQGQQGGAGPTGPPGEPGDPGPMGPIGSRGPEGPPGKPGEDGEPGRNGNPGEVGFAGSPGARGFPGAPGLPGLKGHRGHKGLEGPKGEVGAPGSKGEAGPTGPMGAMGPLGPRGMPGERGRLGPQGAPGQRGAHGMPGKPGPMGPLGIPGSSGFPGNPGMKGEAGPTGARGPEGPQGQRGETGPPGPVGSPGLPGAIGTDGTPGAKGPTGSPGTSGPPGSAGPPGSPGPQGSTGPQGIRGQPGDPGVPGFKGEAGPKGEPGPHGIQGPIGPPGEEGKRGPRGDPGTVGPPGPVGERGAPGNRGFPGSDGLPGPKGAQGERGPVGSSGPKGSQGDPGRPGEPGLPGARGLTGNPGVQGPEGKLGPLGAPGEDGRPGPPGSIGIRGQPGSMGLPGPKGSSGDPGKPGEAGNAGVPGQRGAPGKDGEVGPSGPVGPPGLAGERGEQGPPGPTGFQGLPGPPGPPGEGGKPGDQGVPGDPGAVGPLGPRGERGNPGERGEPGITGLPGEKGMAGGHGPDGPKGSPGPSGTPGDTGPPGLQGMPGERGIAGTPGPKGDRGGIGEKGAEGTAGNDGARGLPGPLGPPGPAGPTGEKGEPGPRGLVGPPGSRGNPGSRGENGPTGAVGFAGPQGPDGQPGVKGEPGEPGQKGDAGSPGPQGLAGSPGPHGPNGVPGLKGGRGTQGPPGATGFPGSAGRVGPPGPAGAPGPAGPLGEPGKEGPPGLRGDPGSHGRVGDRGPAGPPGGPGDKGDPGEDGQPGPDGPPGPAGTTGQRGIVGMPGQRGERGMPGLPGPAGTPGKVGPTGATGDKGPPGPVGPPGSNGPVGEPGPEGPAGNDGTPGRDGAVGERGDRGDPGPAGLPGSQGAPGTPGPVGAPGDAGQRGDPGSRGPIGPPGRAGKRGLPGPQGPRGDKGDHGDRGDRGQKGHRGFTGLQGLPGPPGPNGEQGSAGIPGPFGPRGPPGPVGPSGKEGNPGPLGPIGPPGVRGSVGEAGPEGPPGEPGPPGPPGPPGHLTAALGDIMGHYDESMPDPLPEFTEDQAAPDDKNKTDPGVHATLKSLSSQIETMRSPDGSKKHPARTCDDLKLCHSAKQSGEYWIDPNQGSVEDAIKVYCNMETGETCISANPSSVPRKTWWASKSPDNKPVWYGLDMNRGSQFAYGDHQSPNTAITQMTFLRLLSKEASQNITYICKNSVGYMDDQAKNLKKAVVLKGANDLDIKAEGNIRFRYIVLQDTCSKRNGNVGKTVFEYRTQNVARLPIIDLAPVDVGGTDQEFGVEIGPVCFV

Columns and labels:
Experiment in all cases: human ORF protein microarray
[1] = biological target: T1, CRABP2 (Homo sapiens) (UniProt P29373); details: 5' phosphate; Domain array: 20 mM Tris-HCl pH 7.4, 200 mM KCl, 0.2 mM EDTA, 0.05% NP40, 2 ug/ul heparin, overnight 4 C. ORF array: PBS pH 7.0 with RNase inhibitor, 100 ng RNA, 1 h.; recombinant protein; protein details: N-terminal GST-6xHis; label: internal DY647 at G18; letters put together from the description
T1 sequence (looked up, limits assumed): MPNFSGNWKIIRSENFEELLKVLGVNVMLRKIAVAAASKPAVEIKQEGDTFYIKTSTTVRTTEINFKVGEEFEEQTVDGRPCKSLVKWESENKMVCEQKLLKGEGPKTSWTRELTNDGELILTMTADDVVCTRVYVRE

[2] = biological target: T2, HDHD2 (Homo sapiens) (UniProt Q9H0R4); details: 5' phosphate; Domain array: 20 mM Tris-HCl pH 7.4, 200 mM KCl, 0.2 mM EDTA, 0.05% NP40, 2 ug/ul heparin, overnight 4 C. ORF array: PBS pH 7.0 with RNase inhibitor, 100 ng RNA, 1 h.; recombinant protein; protein details: N-terminal GST-6xHis; label: internal DY647 at G18; letters put together from the description
T2 sequence (looked up, limits assumed): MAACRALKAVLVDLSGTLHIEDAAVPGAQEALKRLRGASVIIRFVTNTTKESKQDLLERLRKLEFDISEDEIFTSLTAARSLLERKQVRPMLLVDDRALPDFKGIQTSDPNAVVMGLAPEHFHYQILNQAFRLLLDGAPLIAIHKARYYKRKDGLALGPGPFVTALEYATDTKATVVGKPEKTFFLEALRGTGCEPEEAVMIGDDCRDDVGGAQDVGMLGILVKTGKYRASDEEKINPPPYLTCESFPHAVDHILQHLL

[3] = biological target: T3, JAZF1 (Homo sapiens) (UniProt Q86VZ6); details: 5' phosphate; Domain array: 20 mM Tris-HCl pH 7.4, 200 mM KCl, 0.2 mM EDTA, 0.05% NP40, 2 ug/ul heparin, overnight 4 C. ORF array: PBS pH 7.0 with RNase inhibitor, 100 ng RNA, 1 h.; recombinant protein; protein details: N-terminal GST-6xHis; label: internal DY647 at G18; letters put together from the description
T3 sequence (looked up, limits assumed): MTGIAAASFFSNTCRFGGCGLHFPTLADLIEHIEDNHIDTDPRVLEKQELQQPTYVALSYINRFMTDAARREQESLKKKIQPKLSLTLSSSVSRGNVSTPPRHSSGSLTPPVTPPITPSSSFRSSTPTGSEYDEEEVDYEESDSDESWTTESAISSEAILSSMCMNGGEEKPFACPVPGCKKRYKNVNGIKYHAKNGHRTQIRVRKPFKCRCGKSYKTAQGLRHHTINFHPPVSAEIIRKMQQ

[4] = biological target: L1TD1 (Homo sapiens) (UniProt Q5T7N2); details: 5' phosphate; Domain array: 20 mM Tris-HCl pH 7.4, 200 mM KCl, 0.2 mM EDTA, 0.05% NP40, 2 ug/ul heparin, overnight 4 C. ORF array: PBS pH 7.0 with RNase inhibitor, 100 ng RNA, 1 h.; recombinant protein; protein details: N-terminal GST-6xHis; label: internal DY647 at G18; letters put together from the description
[5] = biological target: SELE (Homo sapiens) (UniProt P16581); details: 5' phosphate; Domain array: 20 mM Tris-HCl pH 7.4, 200 mM KCl, 0.2 mM EDTA, 0.05% NP40, 2 ug/ul heparin, overnight 4 C. ORF array: PBS pH 7.0 with RNase inhibitor, 100 ng RNA, 1 h.; recombinant protein; protein details: N-terminal GST-6xHis; label: internal DY647 at G18; letters put together from the description
[6] = biological target: COL5A2 (Homo sapiens) (UniProt P05997); details: 5' phosphate; amino-C6 U at position 18; Domain array: 20 mM Tris-HCl pH 7.4, 200 mM KCl, 0.2 mM EDTA, 0.05% NP40, 2 ug/ul heparin, overnight 4 C. ORF array: PBS pH 7.0 with RNase inhibitor, 100 ng RNA, 1 h.; recombinant protein; protein details: N-terminal GST-6xHis; label: internal Cy5 or DY647
[7] = biological target: T4, EFHA2 (Homo sapiens) (UniProt Q86XE3); details: 5' phosphate; amino-C6 U at position 18; Domain array: 20 mM Tris-HCl pH 7.4, 200 mM KCl, 0.2 mM EDTA, 0.05% NP40, 2 ug/ul heparin, overnight 4 C. ORF array: PBS pH 7.0 with RNase inhibitor, 100 ng RNA, 1 h.; recombinant protein; protein details: N-terminal GST-6xHis; label: internal Cy5 or DY647
T4 sequence (looked up, limits assumed): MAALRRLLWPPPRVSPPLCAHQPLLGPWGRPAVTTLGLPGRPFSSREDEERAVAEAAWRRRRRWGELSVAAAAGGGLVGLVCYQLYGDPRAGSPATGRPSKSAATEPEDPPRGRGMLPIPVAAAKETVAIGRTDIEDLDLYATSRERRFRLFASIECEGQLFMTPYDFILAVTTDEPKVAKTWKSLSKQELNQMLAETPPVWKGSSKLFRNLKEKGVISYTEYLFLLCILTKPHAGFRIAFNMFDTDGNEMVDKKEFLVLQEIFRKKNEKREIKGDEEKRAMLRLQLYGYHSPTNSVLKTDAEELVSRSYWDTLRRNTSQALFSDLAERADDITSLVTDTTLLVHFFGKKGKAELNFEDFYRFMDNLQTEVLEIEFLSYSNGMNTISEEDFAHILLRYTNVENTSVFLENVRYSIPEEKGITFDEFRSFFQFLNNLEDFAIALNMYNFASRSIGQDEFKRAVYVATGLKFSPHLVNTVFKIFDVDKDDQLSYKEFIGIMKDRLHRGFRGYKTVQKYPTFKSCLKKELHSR

[8] = biological target: T5, SLC30A6 (Homo sapiens) (UniProt Q6NXT4); details: 5' phosphate; amino-C6 U at position 18; Domain array: 20 mM Tris-HCl pH 7.4, 200 mM KCl, 0.2 mM EDTA, 0.05% NP40, 2 ug/ul heparin, overnight 4 C. ORF array: PBS pH 7.0 with RNase inhibitor, 100 ng RNA, 1 h.; recombinant protein; protein details: N-terminal GST-6xHis; label: internal Cy5 or DY647
T5 sequence (looked up, limits assumed): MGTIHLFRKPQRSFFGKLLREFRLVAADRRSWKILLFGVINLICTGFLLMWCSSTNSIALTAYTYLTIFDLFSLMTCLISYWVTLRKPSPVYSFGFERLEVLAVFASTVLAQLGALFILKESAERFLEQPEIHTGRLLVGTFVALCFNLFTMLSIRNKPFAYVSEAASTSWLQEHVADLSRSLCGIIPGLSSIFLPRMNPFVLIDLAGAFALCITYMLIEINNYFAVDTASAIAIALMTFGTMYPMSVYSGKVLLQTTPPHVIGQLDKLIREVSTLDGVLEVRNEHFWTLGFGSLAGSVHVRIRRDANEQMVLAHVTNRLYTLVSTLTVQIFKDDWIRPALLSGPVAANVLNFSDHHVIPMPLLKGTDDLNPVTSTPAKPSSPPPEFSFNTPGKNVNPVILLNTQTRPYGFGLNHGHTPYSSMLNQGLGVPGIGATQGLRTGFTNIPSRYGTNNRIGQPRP

[9] = biological target: T6, SLC9A6 (Homo sapiens) (UniProt Q92581); details: 5' phosphate; amino-C6 U at position 18; Domain array: 20 mM Tris-HCl pH 7.4, 200 mM KCl, 0.2 mM EDTA, 0.05% NP40, 2 ug/ul heparin, overnight 4 C. ORF array: PBS pH 7.0 with RNase inhibitor, 100 ng RNA, 1 h.; recombinant protein; protein details: N-terminal GST-6xHis; label: internal Cy5 or DY647
T6 sequence (looked up, limits assumed): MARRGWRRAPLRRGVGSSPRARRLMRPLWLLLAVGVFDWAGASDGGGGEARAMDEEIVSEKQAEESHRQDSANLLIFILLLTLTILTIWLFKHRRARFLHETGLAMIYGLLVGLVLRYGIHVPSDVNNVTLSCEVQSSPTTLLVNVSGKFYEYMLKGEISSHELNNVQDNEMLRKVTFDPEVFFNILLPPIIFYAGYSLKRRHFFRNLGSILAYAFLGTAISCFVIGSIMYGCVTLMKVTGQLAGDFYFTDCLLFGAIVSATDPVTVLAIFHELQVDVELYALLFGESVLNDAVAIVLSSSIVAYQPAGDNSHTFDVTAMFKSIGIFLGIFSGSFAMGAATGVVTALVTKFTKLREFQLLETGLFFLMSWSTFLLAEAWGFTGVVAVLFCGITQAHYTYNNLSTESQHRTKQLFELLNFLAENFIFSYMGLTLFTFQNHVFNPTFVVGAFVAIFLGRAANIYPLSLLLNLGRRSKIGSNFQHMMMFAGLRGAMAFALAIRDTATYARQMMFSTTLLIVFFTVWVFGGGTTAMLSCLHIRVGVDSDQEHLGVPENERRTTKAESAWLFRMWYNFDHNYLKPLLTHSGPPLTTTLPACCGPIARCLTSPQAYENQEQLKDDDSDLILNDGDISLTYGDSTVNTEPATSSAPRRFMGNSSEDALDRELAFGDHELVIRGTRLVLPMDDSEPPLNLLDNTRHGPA

Measured: binding result

CAGUGCAAUGAUGAAAGGGCAU [miR-130b (internal labeling)]
binds: [1] | [2] | [3] | [4] | [5]

UGAGGUAGUAGGUUGUGUGGUU [let-7b (internal labeling)]
binds: [6] | [7] | [8] | [9]

For at least one entry, the source does not settle the construct or the ends of the probe. For part of these data: Where a protein sequence is shown, tags need not be part of it.
